Assay results reported in the supplement of paper PMC12067093, “Discovery and optimisation of a covalent ligand for TRIM25 and its application to targeted protein ubiquitination” (Chemical Science, 2025).
Some of the results follow.

By UniProt entry, the sequences of proteins in these tests, tags left out. Where a name states a change or a piece, a line headed by the entry shows the natural chain unless it says otherwise.
UniProt P51991: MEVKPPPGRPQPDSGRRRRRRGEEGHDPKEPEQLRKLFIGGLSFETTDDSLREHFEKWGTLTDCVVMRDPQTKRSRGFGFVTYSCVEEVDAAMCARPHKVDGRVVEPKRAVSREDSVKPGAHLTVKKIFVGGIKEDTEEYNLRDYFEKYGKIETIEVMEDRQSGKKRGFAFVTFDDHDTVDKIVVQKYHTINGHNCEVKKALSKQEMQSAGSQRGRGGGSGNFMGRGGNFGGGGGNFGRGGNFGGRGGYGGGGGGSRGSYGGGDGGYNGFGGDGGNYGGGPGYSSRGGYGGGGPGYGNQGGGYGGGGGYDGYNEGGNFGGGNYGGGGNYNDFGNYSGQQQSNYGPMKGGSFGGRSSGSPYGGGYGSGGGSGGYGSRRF
UniProt Q00613: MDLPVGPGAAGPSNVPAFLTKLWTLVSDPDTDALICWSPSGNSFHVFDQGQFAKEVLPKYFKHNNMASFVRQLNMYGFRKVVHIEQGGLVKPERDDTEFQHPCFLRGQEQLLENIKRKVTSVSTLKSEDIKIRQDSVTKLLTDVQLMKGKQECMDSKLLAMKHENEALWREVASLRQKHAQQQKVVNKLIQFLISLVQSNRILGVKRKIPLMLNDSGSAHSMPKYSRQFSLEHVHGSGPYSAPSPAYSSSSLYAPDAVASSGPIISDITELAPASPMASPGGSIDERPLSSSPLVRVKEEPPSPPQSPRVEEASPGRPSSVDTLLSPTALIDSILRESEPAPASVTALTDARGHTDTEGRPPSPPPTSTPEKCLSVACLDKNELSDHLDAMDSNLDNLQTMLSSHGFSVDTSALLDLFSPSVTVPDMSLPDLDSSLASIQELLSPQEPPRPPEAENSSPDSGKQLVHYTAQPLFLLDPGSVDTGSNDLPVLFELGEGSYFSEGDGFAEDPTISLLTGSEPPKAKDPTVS
UniProt O43390: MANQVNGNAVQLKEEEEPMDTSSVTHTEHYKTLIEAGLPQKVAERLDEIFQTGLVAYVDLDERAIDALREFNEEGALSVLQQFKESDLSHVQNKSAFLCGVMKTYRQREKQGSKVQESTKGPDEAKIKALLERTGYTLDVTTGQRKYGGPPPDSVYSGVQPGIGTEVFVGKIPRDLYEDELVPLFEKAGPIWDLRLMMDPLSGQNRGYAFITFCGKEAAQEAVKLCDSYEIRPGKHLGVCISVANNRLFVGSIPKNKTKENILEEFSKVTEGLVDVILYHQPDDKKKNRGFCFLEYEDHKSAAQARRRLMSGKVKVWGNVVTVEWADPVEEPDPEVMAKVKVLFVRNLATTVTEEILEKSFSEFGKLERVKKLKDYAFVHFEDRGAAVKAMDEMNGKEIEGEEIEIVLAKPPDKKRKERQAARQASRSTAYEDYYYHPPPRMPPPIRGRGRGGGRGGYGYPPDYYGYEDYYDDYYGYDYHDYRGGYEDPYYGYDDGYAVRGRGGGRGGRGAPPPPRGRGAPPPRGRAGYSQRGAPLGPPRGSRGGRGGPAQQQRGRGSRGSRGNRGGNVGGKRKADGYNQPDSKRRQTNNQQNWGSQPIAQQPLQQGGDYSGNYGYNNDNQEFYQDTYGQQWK
UniProt Q9NZL4: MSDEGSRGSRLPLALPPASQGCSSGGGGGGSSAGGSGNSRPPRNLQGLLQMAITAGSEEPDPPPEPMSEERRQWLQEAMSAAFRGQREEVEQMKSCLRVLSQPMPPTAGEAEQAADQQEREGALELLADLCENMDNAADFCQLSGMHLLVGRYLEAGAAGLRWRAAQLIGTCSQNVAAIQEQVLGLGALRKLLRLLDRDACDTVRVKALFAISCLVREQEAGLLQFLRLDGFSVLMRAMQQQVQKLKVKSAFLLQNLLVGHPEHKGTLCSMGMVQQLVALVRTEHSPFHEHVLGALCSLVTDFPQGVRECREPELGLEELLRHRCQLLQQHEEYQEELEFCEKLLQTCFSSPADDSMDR
UniProt P08238, whole entry, looked up: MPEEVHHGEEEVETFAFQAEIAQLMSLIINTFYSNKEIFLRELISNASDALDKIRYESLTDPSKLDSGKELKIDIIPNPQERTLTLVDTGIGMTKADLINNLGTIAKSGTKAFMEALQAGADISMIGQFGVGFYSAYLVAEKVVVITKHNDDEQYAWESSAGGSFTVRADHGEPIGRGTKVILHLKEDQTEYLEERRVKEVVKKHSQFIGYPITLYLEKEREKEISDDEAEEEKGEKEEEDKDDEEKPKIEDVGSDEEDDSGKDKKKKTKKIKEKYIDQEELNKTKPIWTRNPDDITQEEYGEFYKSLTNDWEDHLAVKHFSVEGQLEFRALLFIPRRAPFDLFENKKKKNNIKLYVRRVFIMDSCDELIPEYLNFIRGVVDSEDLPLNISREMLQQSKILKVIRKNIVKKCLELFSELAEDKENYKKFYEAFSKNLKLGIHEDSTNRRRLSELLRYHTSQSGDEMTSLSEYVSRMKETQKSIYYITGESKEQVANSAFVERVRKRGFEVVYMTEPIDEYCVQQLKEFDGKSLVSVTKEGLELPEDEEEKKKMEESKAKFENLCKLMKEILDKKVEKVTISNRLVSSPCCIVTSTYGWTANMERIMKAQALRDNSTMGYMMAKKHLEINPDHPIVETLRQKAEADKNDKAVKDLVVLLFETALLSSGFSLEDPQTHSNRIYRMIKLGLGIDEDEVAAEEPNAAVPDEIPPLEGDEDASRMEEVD
UniProt P14866: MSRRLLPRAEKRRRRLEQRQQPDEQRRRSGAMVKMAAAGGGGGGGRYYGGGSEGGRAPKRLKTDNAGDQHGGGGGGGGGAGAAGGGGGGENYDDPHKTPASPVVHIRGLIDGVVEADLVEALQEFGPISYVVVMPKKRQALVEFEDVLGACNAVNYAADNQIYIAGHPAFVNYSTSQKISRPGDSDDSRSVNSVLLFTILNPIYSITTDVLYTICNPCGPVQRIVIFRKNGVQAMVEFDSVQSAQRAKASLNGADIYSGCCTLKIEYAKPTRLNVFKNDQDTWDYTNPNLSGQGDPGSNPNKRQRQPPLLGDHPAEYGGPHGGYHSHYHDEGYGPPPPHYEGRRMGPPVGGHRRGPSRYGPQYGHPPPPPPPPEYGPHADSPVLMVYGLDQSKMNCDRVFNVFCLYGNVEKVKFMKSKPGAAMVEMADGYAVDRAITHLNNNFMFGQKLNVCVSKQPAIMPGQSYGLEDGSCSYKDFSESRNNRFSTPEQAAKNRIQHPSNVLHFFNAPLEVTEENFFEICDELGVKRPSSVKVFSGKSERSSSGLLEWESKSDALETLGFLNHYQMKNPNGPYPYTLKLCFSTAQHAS
UniProt O43719: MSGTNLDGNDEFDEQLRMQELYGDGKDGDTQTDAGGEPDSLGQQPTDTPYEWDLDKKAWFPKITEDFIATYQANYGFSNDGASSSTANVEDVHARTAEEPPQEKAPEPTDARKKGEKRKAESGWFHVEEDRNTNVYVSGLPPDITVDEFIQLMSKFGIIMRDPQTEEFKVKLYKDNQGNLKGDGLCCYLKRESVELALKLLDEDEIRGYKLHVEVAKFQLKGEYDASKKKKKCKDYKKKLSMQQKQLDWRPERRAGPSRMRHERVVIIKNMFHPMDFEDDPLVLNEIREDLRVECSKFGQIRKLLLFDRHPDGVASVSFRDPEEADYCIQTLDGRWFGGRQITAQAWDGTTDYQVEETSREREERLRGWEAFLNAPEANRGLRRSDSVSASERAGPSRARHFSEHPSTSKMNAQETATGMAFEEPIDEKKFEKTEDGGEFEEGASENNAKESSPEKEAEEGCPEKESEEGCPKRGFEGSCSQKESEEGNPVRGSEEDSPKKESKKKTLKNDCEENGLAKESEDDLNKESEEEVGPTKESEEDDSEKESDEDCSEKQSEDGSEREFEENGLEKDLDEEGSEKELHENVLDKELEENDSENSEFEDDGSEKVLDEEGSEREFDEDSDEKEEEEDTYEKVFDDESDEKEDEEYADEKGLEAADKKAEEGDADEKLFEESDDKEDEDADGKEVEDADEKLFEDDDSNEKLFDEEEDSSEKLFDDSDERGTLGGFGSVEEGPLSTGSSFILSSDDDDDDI
UniProt Q96IR7: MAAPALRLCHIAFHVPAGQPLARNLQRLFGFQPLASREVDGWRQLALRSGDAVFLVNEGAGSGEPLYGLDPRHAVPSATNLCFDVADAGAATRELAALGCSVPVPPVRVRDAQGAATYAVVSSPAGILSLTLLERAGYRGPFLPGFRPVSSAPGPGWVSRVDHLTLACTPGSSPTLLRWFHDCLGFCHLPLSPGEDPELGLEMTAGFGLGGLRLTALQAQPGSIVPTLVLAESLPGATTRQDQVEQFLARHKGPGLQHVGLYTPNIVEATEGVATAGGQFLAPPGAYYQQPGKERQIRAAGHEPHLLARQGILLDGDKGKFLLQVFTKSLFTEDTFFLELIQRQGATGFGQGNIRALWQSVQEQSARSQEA
UniProt P00492: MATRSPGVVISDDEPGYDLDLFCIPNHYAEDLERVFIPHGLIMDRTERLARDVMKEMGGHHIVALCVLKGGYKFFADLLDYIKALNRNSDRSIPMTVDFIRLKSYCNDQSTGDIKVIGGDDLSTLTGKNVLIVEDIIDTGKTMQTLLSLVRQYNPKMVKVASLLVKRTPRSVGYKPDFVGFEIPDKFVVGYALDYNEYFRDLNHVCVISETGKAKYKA
UniProt O14979: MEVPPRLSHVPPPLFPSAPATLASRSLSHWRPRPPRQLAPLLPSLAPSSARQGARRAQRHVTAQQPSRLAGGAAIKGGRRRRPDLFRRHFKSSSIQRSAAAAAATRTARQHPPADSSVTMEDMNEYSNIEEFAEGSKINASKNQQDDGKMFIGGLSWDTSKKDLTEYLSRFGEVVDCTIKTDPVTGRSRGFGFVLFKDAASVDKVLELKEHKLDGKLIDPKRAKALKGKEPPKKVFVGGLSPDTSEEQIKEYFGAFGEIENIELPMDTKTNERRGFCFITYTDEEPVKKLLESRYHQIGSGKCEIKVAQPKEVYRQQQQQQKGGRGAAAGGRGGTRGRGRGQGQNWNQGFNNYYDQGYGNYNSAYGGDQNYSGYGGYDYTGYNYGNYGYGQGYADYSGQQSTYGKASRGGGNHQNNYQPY
UniProt P22626: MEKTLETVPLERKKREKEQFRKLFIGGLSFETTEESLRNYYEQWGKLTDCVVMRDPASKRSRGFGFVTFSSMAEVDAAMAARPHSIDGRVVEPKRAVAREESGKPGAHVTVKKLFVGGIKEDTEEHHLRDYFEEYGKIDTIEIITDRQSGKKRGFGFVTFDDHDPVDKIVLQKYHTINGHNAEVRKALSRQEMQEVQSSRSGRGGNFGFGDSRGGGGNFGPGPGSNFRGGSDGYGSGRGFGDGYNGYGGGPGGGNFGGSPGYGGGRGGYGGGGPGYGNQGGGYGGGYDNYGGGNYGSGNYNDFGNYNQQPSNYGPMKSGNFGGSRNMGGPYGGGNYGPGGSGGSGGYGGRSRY
UniProt P38646: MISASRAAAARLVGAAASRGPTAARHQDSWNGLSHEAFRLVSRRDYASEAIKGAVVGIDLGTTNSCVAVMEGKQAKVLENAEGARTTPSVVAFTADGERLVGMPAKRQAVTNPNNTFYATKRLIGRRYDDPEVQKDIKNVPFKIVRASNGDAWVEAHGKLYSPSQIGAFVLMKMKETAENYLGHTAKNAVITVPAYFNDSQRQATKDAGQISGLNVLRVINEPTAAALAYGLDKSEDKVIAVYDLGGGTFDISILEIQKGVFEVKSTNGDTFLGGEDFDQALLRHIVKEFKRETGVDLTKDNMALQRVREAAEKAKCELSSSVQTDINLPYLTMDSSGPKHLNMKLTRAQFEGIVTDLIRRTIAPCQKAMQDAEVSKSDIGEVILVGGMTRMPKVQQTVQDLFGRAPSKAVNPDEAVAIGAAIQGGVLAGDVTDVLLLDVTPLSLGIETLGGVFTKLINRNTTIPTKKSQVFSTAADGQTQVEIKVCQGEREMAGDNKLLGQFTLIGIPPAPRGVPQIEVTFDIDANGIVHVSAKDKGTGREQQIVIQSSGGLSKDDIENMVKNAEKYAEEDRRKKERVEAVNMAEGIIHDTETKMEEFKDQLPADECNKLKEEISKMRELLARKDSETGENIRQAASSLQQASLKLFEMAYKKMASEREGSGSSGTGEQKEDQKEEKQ
UniProt P09651: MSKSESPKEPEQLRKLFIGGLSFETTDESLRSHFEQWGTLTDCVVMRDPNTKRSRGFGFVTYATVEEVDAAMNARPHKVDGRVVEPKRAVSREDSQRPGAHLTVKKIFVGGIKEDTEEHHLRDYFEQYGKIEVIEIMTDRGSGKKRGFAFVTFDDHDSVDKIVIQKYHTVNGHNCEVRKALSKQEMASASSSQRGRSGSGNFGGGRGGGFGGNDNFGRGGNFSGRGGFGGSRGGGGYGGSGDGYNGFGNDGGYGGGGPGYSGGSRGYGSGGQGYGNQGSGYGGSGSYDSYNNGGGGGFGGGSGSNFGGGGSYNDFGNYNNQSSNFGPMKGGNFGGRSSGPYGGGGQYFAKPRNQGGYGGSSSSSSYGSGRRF

Compound: Cc1cc(ccc1-c1ccccc1)C(=O)N1CCCN(CC1)C(=O)CCl [compound 10]
Test: probe-labelled cysteine peptide fold change vs DMSO (competition) (log2 fold change); higher = less target engagement (more negative = stronger competition)
Settings: THP-1, incubation time: 4 h
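Note: competitive profiling in live THP-1 cells: cysteine peptides tagged with an iodoacetamide desthiobiotin (IA-DTB) probe, intensity after compound treatment relative to DMSO-treated cells.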

| Target | probe-labelled cysteine peptide fold change (10 µM) | probe-labelled cysteine peptide fold change (50 µM) |
| --- | --- | --- |
| HNRNPA3_P51991_94_GFGFVTYSCVEEVDAAMCARPHK (UniProt P51991) | -0.0321 | -0.229 |
| HSF1_Q00613_373+378_CLSVACLDK (UniProt Q00613) | -0.649 | -0.849 |
| HSPA4_P34932_417_WNSPAEEGSSDCEVFSK (UniProt P34932) | -0.232 | -0.145 |
| HTT_P42858_2792_VGALHGVLYVLECDLLDDTAK (UniProt P42858) | -0.0059 | 0.169 |
| HNRNPD_Q14103_226_RGFCFITFK (UniProt Q14103) | 0.129 | 0.13 |
| HNRNPR_O43390_214_GYAFITFCGK (UniProt O43390) | -0.0464 | -0.0135 |
| HSP90AA4P_Q58FG1_178_DLIMDNCEELIPEYLNFIR (UniProt Q58FG1) | 0.0768 | 0.401 |
| HSPA4L_O95757_213_NVVFIDMGHSAYQVLVCAFNK (UniProt O95757) | 0.158 | 0.279 |
| HSPBP1_Q9NZL4_201_LLDRDACDTVR (UniProt Q9NZL4) | -0.444 | -0.745 |
| HSPA8_P11142_603_VCNPIITK (UniProt P11142) | 0.0489 | 0.0629 |
| HSP90AB1_P08238_521_GFEVVYMTEPIDEYCVQQLK (UniProt P08238) | -0.0263 | – |
| HNRNPLL_Q8WVV9_357_VFNLFCLYGNIEK (UniProt Q8WVV9) | 0.0942 | 0.116 |
| HOMEZ_Q8IX15_110_CGISWSSEEIEETR (UniProt Q8IX15) | 0.0803 | 0.166 |
| HNRNPL_P14866_260+261_ASLNGADIYSGCCTLK (UniProt P14866) | 0.0811 | -0.289 |
| HTATSF1_O43719_328_HPDGVASVSFRDPEEADYCIQTLDGR (UniProt O43719) | 0.17 | 0.118 |
| HNRNPL_P14866_260_ASLNGADIYSGCCTLK (UniProt P14866) | 0.134 | -0.186 |
| HPDL_Q96IR7_9_LCHIAFHVPAGQPLAR (UniProt Q96IR7) | -0.0155 | -0.111 |
| HSPA4L_O95757_140_KPVADCVISIPSFFTDAER (UniProt O95757) | 0.132 | 0.472 |
| HTATSF1_O43719_186_GDGLCCYLK (UniProt O43719) | -0.216 | -0.205 |
| HTATSF1_O43719_462_EAEEGCPEK (UniProt O43719) | -0.166 | -0.212 |
| HNRNPL_P14866_581_LCFSTAQHAS (UniProt P14866) | 0.0791 | -0.0199 |

| Target | probe-labelled cysteine peptide fold change (10 µM) | probe-labelled cysteine peptide fold change (50 µM) |
| --- | --- | --- |
| HPRT1_P00492_206_DLNHVCVISETGK (UniProt P00492) | 0.0701 | -0.0429 |
| HNRNPUL2_Q1KMD3_452_TIEECEVILMVGLPGSGK (UniProt Q1KMD3) | 0.143 | 0.242 |
| HPS3_Q969F9_647_QVPHILCSPSMK (UniProt Q969F9) | 0.0421 | -0.246 |
| HOXA11_P31270_82_GNLAHCYSAEELVHR (UniProt P31270) | 0.0231 | 0.0767 |
| HNRNPDL_O14979_277_RGFCFITYTDEEPVK (UniProt O14979) | 0.288 | -0.138 |
| HNRNPA2B1_P22626_50_LTDCVVMRDPASKR (UniProt P22626) | -0.0144 | -0.424 |
| HNRNPU_Q00839_607_KAVVVCPK (UniProt Q00839) | -0.015 | -0.302 |
| HNRNPK_P61978_184+185_LFQECCPHSTDRVVLIGGKPDR (UniProt P61978) | -0.234 | -1.28 |
| HPS4_Q9NQG7_63_CVSDISDSPPTLVR (UniProt Q9NQG7) | -0.0973 | 0.014 |
| HOOK3_Q86VS8_199_CHELDMQVAALQEEK (UniProt Q86VS8) | 0.238 | 0.132 |
| HSD17B10_Q99714_91_VDVAVNCAGIAVASK (UniProt Q99714) | 0.0196 | 0.0597 |
| HSPA9_P38646_608_DQLPADECNK (UniProt P38646) | 0.0861 | 0.278 |
| HNRNPA1_P09651_43_SHFEQWGTLTDCVVMRDPNTKR (UniProt P09651) | -0.036 | -0.51 |
| HSPB11_Q9Y547_52_HPPENIIDGNPETFWTTTGMFPQEFIICFHK (UniProt Q9Y547) | 0.0782 | 0.167 |
| HNRNPU_Q00839_389_TCNCETEDYGEK (UniProt Q00839) | 0.16 | 0.644 |
| HUS1_O60921_200_IETELVCVTTHFK (UniProt O60921) | 0.254 | 0.172 |
| HSPA4_P34932_779_ELTSTCSPIISKPK (UniProt P34932) | -0.0433 | -0.665 |
| HNRNPU_Q00839_450+453_PLFPHVLCHNCAVEFNFGQK (UniProt Q00839) | -0.0224 | -0.192 |
| HSPA4_P34932_245_KFDEVLVNHFCEEFGK (UniProt P34932) | 0.00761 | -0.00421 |
| HSPH1_Q92598_245_LVEHFCAEFK (UniProt Q92598) | 0.0542 | 0.207 |
| HNRNPLL_Q8WVV9_505_TLSGLLEWECKTDAVEALTALNHYQIR (UniProt Q8WVV9) | -0.0924 | -0.402 |

| Target | probe-labelled cysteine peptide fold change (10 µM) | probe-labelled cysteine peptide fold change (50 µM) |
| --- | --- | --- |
| HNRNPA0_Q13151_49_CFGFVTYSNVEEADAAMAASPHAVDGNTVELK (UniProt Q13151) | 0.356 | 0.056 |
| HNRNPA3_P51991_85+94_GFGFVTYSCVEEVDAAMCARPHK (UniProt P51991) | -0.224 | -0.281 |
| HNRNPUL1_Q9BUJ2_487_WDVLIQQATQCLNR (UniProt Q9BUJ2) | -0.168 | 0.18 |
| HSD17B4_P51659_425_CEAVVADVLDK (UniProt P51659) | 0.0224 | 0.443 |
| HNRNPU_Q00839_594_MCLFAGFQR (UniProt Q00839) | -0.0812 | -0.0999 |
| HNRNPUL2_Q1KMD3_538_NFILDQCNVYNSGQR (UniProt Q1KMD3) | -0.109 | 0.293 |
| HNRNPA3_P51991_196_YHTINGHNCEVK (UniProt P51991) | 0.0535 | 0.0559 |
| HNRNPUL2_Q1KMD3_308_EGCTEVSLLR (UniProt Q1KMD3) | 0.0493 | -0.324 |
| HSPA9_P38646_66_GAVVGIDLGTTNSCVAVMEGK (UniProt P38646) | -0.141 | 0.0641 |
| HNRNPA3_P51991_64_WGTLTDCVVMR (UniProt P51991) | -0.0374 | 0.0318 |
| HSD17B12_Q53GQ0_166_KMININILSVCK (UniProt Q53GQ0) | -0.234 | -0.553 |
| HNRNPR_O43390_99_SAFLCGVMK (UniProt O43390) | 0.107 | -0.182 |
| HSPBP1_Q9NZL4_341_CQLLQQHEEYQEELEFCEK (UniProt Q9NZL4) | 0.137 | 0.242 |
| HNRNPA2B1_P22626_50_LTDCVVMR (UniProt P22626) | -0.0119 | 0.0662 |
| HNRNPU_Q00839_335_VCFEMK (UniProt Q00839) | 0.0568 | 0.0504 |
| HNRNPA1_P09651_175_YHTVNGHNCEVR (UniProt P09651) | -0.0593 | 0.0843 |
| HNRNPU_Q00839_607_AVVVCPKDEDYK (UniProt Q00839) | -0.128 | -0.4 |
| HNRNPA3_P51991_64_WGTLTDCVVMRDPQTKR (UniProt P51991) | -0.273 | -0.937 |
| HNRNPD_Q14103_226_GFCFITFKEEEPVK (UniProt Q14103) | 0.296 | -0.0829 |
| HSPA14_Q0VDF9_304_FELLCSPLFNK (UniProt Q0VDF9) | 0.0269 | 0.154 |
| HNRNPL_P14866_404_VFNVFCLYGNVEK (UniProt P14866) | 0.0841 | 0.0754 |

| Target | probe-labelled cysteine peptide fold change (10 µM) | probe-labelled cysteine peptide fold change (50 µM) |
| --- | --- | --- |
| HNRNPM_P52272_676_FNECGHVLYADIK (UniProt P52272) | 0.12 | 0.0407 |
| HSD17B12_Q53GQ0_166_MININILSVCK (UniProt Q53GQ0) | -0.0236 | 0.243 |
| HPRT1_P00492_106_SYCNDQSTGDIK (UniProt P00492) | -0.203 | -0.311 |
| HMMR_O75330_242_LLEYIEEISCASDQVEK (UniProt O75330) | 0.208 | -0.0825 |
| HNRNPK_P61978_184+185_LFQECCPHSTDR (UniProt P61978) | 0.0492 | -0.501 |
| HTT_P42858_1152_VINICAHVLDDVAPGPAIK (UniProt P42858) | 0.114 | 0.193 |
| HNRNPUL2_Q1KMD3_408_NCVVELNFGQKEEPFFPPPEEFVFIHAVPVEER (UniProt Q1KMD3) | -0.0678 | -0.142 |
| HNRNPUL2_Q1KMD3_518_DLLVQQASQCLSK (UniProt Q1KMD3) | 0.0636 | 0.153 |
| HNRNPU_Q00839_648_GNFTLPEVAECFDEITYVELQK (UniProt Q00839) | 0.16 | 0.0148 |
| HPDL_Q96IR7_168_VDHLTLACTPGSSPTLLR (UniProt Q96IR7) | -0.032 | -0.309 |
| HP1BP3_Q5SSJ5_412_GFSGTFQLCFPYYPSPGVLFPK (UniProt Q5SSJ5) | -0.25 | -0.0596 |
| HSF1_Q00613_103_VVHIEQGGLVKPERDDTEFQHPCFLR (UniProt Q00613) | -0.0713 | 0.0998 |
| HNRNPUL2_Q1KMD3_405_ALLPHVLCK (UniProt Q1KMD3) | 0.0881 | -0.103 |
| HSF1_Q00613_153_GKQECMDSK (UniProt Q00613) | -0.19 | -0.744 |
| HNRNPDL_O14979_277_GFCFITYTDEEPVK (UniProt O14979) | 0.258 | 0.0355 |
| HSPD1_P10809_442_AAVEEGIVLGGGCALLR (UniProt P10809) | 0.0163 | -0.0109 |
| HSP90AB1_P08238_521_KRGFEVVYMTEPIDEYCVQQLK (UniProt P08238) | -0.0905 | -0.276 |
| HSPBAP1_Q96EW2_293_MLVCALK (UniProt Q96EW2) | 0.297 | 0.184 |
| HSD17B4_P51659_455_ELICHNQFSLFLVGSGGFGGKR (UniProt P51659) | -0.205 | 0.0547 |
| HSPA4L_O95757_245_NFDEALVDYFCDEFK (UniProt O95757) | 0.026 | 0.12 |
